Counter-ions that a name gives are not always drawn. Some of the results follow. Most values lie within the scatter of the assay; repeated measurements hardly agree.
The molecules below were run on Brugia pahangi adult female (assay: motility inhibition on day 3 relative to DMSO vehicle; higher = more active). Settings: 10 µM; 3 days.
With `CCC[C@@]1(CCc2ccccc2)CC(O)=C([C@H](CC)c2cccc(NS(=O)(=O)c3ccc(C(F)(F)F)cn3)c2)C(=O)O1` [Tipranavir] the “motility inhibition on day 3” value was < 0%.
For `C=CCOC(Cn1ccnc1)c1ccc(Cl)cc1Cl` (stereo unspecified) [enilconazole], the “motility inhibition on day 3” value was 9.22%.
`N=C(N)NCCN1CCCCCCC1` [guanethidine sulfate] was tested, and the “motility inhibition on day 3” value was 17.4%.
For `CC(C)CCCC(C)NC(C)C` (stereo unspecified) [iproheptine], the “motility inhibition on day 3” value was 40.4%.
For `CC(CN(C)C)CN1c2ccccc2Sc2ccccc21` (stereo unspecified) [trimeprazine tartrate], the “motility inhibition on day 3” value was 10.8%.
For `CC1(C)[C@@H](OC(=O)CCC(=O)O)CC[C@]2(C)[C@H]3C(=O)C=C4[C@@H]5C[C@@](C)(C(=O)O)CC[C@]5(C)CC[C@@]4(C)[C@]3(C)CC[C@@H]12` [carbenoxolone sodium], the “motility inhibition on day 3” value was 4.58%.
With `CC(=O)OCC(=O)[C@H]1CC[C@H]2[C@@H]3CCC4=CC(=O)CC[C@]4(C)[C@H]3CC[C@]12C` [desoxycorticosterone acetate] the “motility inhibition on day 3” value was 5.3%.
In the case of `CCCOc1ccc(C(=O)OCCN(CC)CC)cc1N` [proparacaine hydrochloride], the “motility inhibition on day 3” value is reported as < 0%.
In the case of `CCN(CC)CCOCCOC(=O)C(CC)(CC)c1ccccc1` [oxelaidin citrate], the “motility inhibition on day 3” value is reported as < 0%.
In the case of `O=C(O)CCC/C=C\C[C@@H]1[C@@H](/C=C/C(F)(F)COc2ccccc2)[C@H](O)C[C@@H]1O` [Tafluprost (free acid)], the “motility inhibition on day 3” value is reported as < 0%.
For `C[C@]1(Cn2ccnn2)[C@H](C(=O)O)N2C(=O)C[C@H]2S1(=O)=O` [tazobactam], the “motility inhibition on day 3” value was 35.4%.
`CC[C@@H](CO)NCCN[C@@H](CC)CO` [ethambutol hydrochloride] was tested, and the “motility inhibition on day 3” value was 2.65%.
`CC(=O)OCC(=O)[C@@]1(OC(C)=O)[C@@H](C)C[C@H]2[C@@H]3C[C@H](F)C4=CC(=O)C=C[C@]4(C)[C@@]3(F)[C@@H](O)C[C@@]21C` [diflorasone diacetate] was tested, and the “motility inhibition on day 3” value was 17%.
For `CC(=O)[O-].CC(=O)[O-].[Ca+2]` [Calcium acetate], the “motility inhibition on day 3” value was 98.5%.
In the case of `CCCCC1(COC(=O)CCC(=O)O)C(=O)N(c2ccccc2)N(c2ccccc2)C1=O` [suxibuzone], the “motility inhibition on day 3” value is reported as 7.91%.
With `COc1cc(NC(C)CCCN)c2ncccc2c1` (stereo unspecified) [primaquine diphosphate] the “motility inhibition on day 3” value was 50.7%.
For `CN(C)[C@@H]1C(O)=C(C(N)=O)C(=O)[C@@]2(O)C(O)=C3C(=O)c4c(O)cccc4[C@@](C)(O)[C@H]3[C@H](O)[C@@H]12` [oxytetracycline], the “motility inhibition on day 3” value was 24.6%.
For `Cc1cc(-c2ccccc2)nnc1NCCN1CCOCC1` [minaprine hydrochloride], the “motility inhibition on day 3” value was < 0%.
`NC(N)=Nc1nc(CSCC/C(N)=N/S(N)(=O)=O)cs1` [famotidine] was tested, and the “motility inhibition on day 3” value was 9.66%.
In the case of `Cl.N=C(N)NCCC[C@H](N)C(=O)O` [arginine hydrochloride], the “motility inhibition on day 3” value is reported as 1.85%.
`CC1=C(/C=C/C(C)=C/C=C/C(C)=C\C(=O)O)C(C)(C)CCC1` [isotretinon] was tested, and the “motility inhibition on day 3” value was 17.6%.
`CC/C(=C(/CC)c1ccc(O)cc1)c1ccc(O)cc1` [diethylstilbestrol] was tested, and the “motility inhibition on day 3” value was 12.2%.
With `CSc1ccc2c(c1)N(CCC1CCCCN1C)c1ccccc1S2` (stereo unspecified) [Thioridazine hydrochloride] the “motility inhibition on day 3” value was 75.7%.
In the case of `CCOc1ccc2nc3cc(N)ccc3c(N)c2c1` [ethacridine lactate], the “motility inhibition on day 3” value is reported as 14.9%.
`CCN(CC)CCNc1ccc(CO)c2sc3ccccc3c(=O)c12` [hycanthone] was tested, and the “motility inhibition on day 3” value was 0.929%.
`O=C(COc1ccc(Cl)cc1)N1CCN(Cc2ccc3c(c2)OCO3)CC1` [fipexide hydrochloride] was tested, and the “motility inhibition on day 3” value was 11.8%.
`N[C@@H](Cc1ccc(O)cc1)C(=O)O` [tyrosine] was tested, and the “motility inhibition on day 3” value was 30.8%.
With `CN(Cc1cnc2nc(N)nc(N)c2n1)c1ccc(C(=O)N[C@@H](CCC(=O)O)C(=O)O)cc1` [methotrexate] the “motility inhibition on day 3” value was < 0%.
`Nc1nc(NC2CC2)c2ncn([C@H]3C=C[C@@H](CO)C3)c2n1` [abacavir sulfate] was tested, and the “motility inhibition on day 3” value was < 0%.
With `C[N+](C)(C)CCOC(=O)CCC(=O)OCC[N+](C)(C)C` [Succinylcholine chloride] the “motility inhibition on day 3” value was < 0%.
`CC(Cc1ccc(O)c(O)c1)(NN)C(=O)O` (stereo not drawn) [S-(-)-Carbidopa] was tested, and the “motility inhibition on day 3” value was 35.8%.
With `Cc1ccsc1/C=C/C1=NCCCN1C` [morantel citrate] the “motility inhibition on day 3” value was 8%.
`CCCCCCCCCCCCCCCCOP(=O)([O-])OCC[N+](C)(C)C` [miltefosine] was tested, and the “motility inhibition on day 3” value was < 0%.
`CN(C)c1ccc(O)c2c1C[C@H]1C[C@H]3[C@H](N(C)C)C(O)=C(C(N)=O)C(=O)[C@@]3(O)C(O)=C1C2=O` [minocycline hydrochloride] was tested, and the “motility inhibition on day 3” value was 14.6%.
With `COc1cccc(OC)c1C(=O)N[C@@H]1C(=O)N2[C@@H]1SC(C)(C)[C@@H]2C(=O)O` [methicillin sodium] the “motility inhibition on day 3” value was 42.9%.
For `Cc1ccc(S(=O)(=O)NC(=O)NN2CCCCCC2)cc1` [Tolazamide], the “motility inhibition on day 3” value was < 0%.
`C[C@]12CC[C@@H]3c4ccc(OS(=O)(=O)O)cc4CC[C@H]3[C@@H]1CCC2=O` [estropipate] was tested, and the “motility inhibition on day 3” value was 4.27%.
With `CCOC(=O)c1ccc(N)cc1` [benzocaine] the “motility inhibition on day 3” value was < 0%.
With `CCN(CC)CCOC(=O)C(c1ccccc1)c1ccccc1` [adiphenine hydrochloride] the “motility inhibition on day 3” value was 11.2%.
With `CC(C)(C)CC(C)(C)c1ccc(O)c(Cc2ccc(Cl)cc2Cl)c1` [clofoctol] the “motility inhibition on day 3” value was < 0%.
With `O=c1[nH]c(=O)c2ccccc2o1` [carsalam] the “motility inhibition on day 3” value was 6.98%.
With `Nc1ccn([C@@H]2O[C@H](CO)[C@@H](O)[C@@H]2O)c(=O)n1` [cytarabine] the “motility inhibition on day 3” value was < 0%.
For `COc1ccnc(C[S+]([O-])c2nc3cc(OC(F)F)ccc3[nH]2)c1OC` (stereo unspecified) [pantoprazole], the “motility inhibition on day 3” value was 4.43%.
With `CO[C@H]1C[C@H](O[C@H]2[C@H](C)[C@@H](O[C@@H]3O[C@H](C)C[C@H](N(C)C)[C@H]3O)[C@@H](C)C[C@@]3(CO3)C(=O)[C@H](C)[C@@H](O)[C@@H](C)[C@@H](C)OC(=O)[C@@H]2C)O[C@@H](C)[C@@H]1O` [oleandomycin phosphate] the “motility inhibition on day 3” value was < 0%.
In the case of `O=C(CCN1CCC(c2ccccc2)C1)c1ccc2c(c1)OCCO2` (stereo unspecified) [Proroxan], the “motility inhibition on day 3” value is reported as 65.2%.
In the case of `Nc1ccc(S(=O)(=O)Nc2ccccn2)cc1` [sulfapyridine], the “motility inhibition on day 3” value is reported as < 0%.
In the case of `CN(C)CCCN1c2ccccc2Sc2ccc(Cl)cc21` [Chlorpromazine hydrochloride], the “motility inhibition on day 3” value is reported as 15.7%.
`O=c1ccc2ccccc2o1` [coumarin] was tested, and the “motility inhibition on day 3” value was 42.6%.
With `COc1cc([C@@H]2c3cc4c(cc3[C@@H](O[C@@H]3O[C@@H]5CO[C@@H](c6cccs6)O[C@H]5[C@H](O)[C@H]3O)[C@H]3COC(=O)[C@H]23)OCO4)cc(OC)c1O` [teniposide] the “motility inhibition on day 3” value was 4%.
`O=c1[nH]cnc2c1ncn2[C@@H]1O[C@H](CO)[C@@H](O)[C@H]1O` [inosine] was tested, and the “motility inhibition on day 3” value was 17.3%.
With `CCOc1ccccc1OC(c1ccccc1)C1CNCCO1` (stereo unspecified) [reboxetine mesylate] the “motility inhibition on day 3” value was < 0%.
In the case of `Cc1nc(Nc2ncc(C(=O)Nc3c(C)cccc3Cl)s2)cc(N2CCN(CCO)CC2)n1` [dasatinib], the “motility inhibition on day 3” value is reported as 29.1%.
For `CCN(CCO)CCCC(C)Nc1ccnc2cc(Cl)ccc12` (stereo unspecified) [hydroxychloroquine sulfate], the “motility inhibition on day 3” value was 5.76%.
In the case of `COc1ccc(CC2c3cc(OC)c(OC)cc3CC[N+]2(C)CCC(=O)OCCCCCOC(=O)CC[N+]2(C)CCc3cc(OC)c(OC)cc3C2Cc2ccc(OC)c(OC)c2)cc1OC` (stereo unspecified) [atracurium besylate], the “motility inhibition on day 3” value is reported as 3.42%.
In the case of `CC(=O)[C@H]1CC[C@H]2[C@@H]3CC=C4C[C@@H](O)CC[C@]4(C)[C@H]3CC[C@]12C` [pregnenolone], the “motility inhibition on day 3” value is reported as 66.2%.
With `CN(C)c1ccc(C(=C2C=CC(=[N+](C)C)C=C2)c2ccc(N(C)C)cc2)cc1` [gentian violet] the “motility inhibition on day 3” value was 93.8%.
With `Cc1nc(-c2ccc(OCC(C)C)c(C#N)c2)sc1C(=O)O` [febuxostat] the “motility inhibition on day 3” value was < 0%.
For `CC(C)(C)c1ccc(C(O)CCCN2CCC(C(O)(c3ccccc3)c3ccccc3)CC2)cc1` (stereo unspecified) [terfenadine], the “motility inhibition on day 3” value was 9.45%.
With `CC(COc1ccccc1)NC(C)C(O)c1ccc(O)cc1` (stereo unspecified) [isoxsuprine hydrochloride] the “motility inhibition on day 3” value was 28.3%.
`CO/N=C1\C[C@]2(C[C@@H]3C[C@@H](C/C=C(\C)C[C@@H](C)/C=C/C=C4\CO[C@@H]5[C@H](O)C(C)=C[C@@H](C(=O)O3)[C@]45O)O2)O[C@H](/C(C)=C/C(C)C)[C@H]1C` [moxidectin] was tested, and the “motility inhibition on day 3” value was 58.3%.
With `CCCCN1CCCCC1C(=O)Nc1c(C)cccc1C` (stereo unspecified) [bupivacaine hydrochloride] the “motility inhibition on day 3” value was < 0%.
In the case of `CCOC(=O)NNc1nncc2ccccc12` [todralazine hydrochloride], the “motility inhibition on day 3” value is reported as 7.8%.
In the case of `CCN(CC)C(=O)c1ccc(O)c(OC)c1` [ethamivan], the “motility inhibition on day 3” value is reported as 2.1%.
For `O=C(c1ccc(F)cc1)C1CCN(CCn2c(=O)[nH]c3ccccc3c2=O)CC1` [Ketanserin tartrate], the “motility inhibition on day 3” value was < 0%.
In the case of `CC(=O)[C@@]1(O)CC[C@H]2[C@@H]3CCC4=CC(=O)CC[C@]4(C)[C@H]3CC[C@@]21C` [hydroxyprogesterone], the “motility inhibition on day 3” value is reported as < 0%.
For `O=C1NCC2(CCN(CCc3ccccc3)CC2)O1` [fenspiride hydrochloride], the “motility inhibition on day 3” value was 21.9%.
In the case of `Clc1ccc2c(c1)CCc1cccnc1C2=C1CCNCC1` [desloratidine], the “motility inhibition on day 3” value is reported as < 0%.
`CN(C)CCOC(c1ccccc1)c1ccccc1.Cn1c(=O)c2[nH]c(Cl)nc2n(C)c1=O` [dimenhydrinate] was tested, and the “motility inhibition on day 3” value was < 0%.
`Cc1cc2nc3c(=O)[nH]c(=O)nc-3n(C[C@H](O)[C@H](O)[C@H](O)CO)c2cc1C` [riboflavin] was tested, and the “motility inhibition on day 3” value was 36.2%.
`CO[C@H]1/C=C/O[C@@]2(C)Oc3c(C)c(O)c4c(O)c(c5c(nc6cc(C)ccn65)c4c3C2=O)NC(=O)/C(C)=C\C=C\[C@H](C)[C@H](O)[C@@H](C)[C@@H](O)[C@@H](C)[C@H](OC(C)=O)[C@@H]1C` [rifaximin] was tested, and the “motility inhibition on day 3” value was 40.5%.
For `C[C@]12C=CC(=O)N[C@@H]1CC[C@@H]1[C@@H]2CC[C@]2(C)[C@@H](C(=O)Nc3cc(C(F)(F)F)ccc3C(F)(F)F)CC[C@@H]12` [dutasteride], the “motility inhibition on day 3” value was 7.08%.
